These are yes or no findings as the source states them, for the method shown. Binding seen in cells or lysates may run through a third protein.
Biological target: T1, Unc93B1 overexpressed in a macrophage cell line (UniProt Q8VCW4)
T1 sequence: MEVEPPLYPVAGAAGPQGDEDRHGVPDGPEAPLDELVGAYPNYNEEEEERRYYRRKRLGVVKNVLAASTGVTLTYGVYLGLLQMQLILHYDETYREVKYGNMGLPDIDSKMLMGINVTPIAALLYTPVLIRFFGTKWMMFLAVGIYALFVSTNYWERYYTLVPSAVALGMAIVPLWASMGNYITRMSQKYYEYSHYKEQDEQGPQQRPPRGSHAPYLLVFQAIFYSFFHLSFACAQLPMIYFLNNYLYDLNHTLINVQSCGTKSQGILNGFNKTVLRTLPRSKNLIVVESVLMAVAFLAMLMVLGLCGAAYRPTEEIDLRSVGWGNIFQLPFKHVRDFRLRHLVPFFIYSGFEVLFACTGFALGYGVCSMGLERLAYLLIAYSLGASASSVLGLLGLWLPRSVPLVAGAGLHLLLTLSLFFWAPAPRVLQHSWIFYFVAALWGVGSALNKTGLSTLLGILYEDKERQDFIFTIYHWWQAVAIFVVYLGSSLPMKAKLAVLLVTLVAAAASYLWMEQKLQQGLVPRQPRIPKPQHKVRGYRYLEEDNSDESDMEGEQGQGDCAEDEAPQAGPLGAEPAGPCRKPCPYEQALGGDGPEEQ
Assay: co-IP; immunoprecipitation of Unc93B1 from a macrophage cell line transduced to overexpress it; immunoblot

binding: no binding
Substance: Rab5

— PMC5693993
